For this assay, the target named is T1, ORP8 (endogenous, HuH7 cells) (human (endogenous in HuH7)) (UniProt Q9BZF1).
T1 sequence: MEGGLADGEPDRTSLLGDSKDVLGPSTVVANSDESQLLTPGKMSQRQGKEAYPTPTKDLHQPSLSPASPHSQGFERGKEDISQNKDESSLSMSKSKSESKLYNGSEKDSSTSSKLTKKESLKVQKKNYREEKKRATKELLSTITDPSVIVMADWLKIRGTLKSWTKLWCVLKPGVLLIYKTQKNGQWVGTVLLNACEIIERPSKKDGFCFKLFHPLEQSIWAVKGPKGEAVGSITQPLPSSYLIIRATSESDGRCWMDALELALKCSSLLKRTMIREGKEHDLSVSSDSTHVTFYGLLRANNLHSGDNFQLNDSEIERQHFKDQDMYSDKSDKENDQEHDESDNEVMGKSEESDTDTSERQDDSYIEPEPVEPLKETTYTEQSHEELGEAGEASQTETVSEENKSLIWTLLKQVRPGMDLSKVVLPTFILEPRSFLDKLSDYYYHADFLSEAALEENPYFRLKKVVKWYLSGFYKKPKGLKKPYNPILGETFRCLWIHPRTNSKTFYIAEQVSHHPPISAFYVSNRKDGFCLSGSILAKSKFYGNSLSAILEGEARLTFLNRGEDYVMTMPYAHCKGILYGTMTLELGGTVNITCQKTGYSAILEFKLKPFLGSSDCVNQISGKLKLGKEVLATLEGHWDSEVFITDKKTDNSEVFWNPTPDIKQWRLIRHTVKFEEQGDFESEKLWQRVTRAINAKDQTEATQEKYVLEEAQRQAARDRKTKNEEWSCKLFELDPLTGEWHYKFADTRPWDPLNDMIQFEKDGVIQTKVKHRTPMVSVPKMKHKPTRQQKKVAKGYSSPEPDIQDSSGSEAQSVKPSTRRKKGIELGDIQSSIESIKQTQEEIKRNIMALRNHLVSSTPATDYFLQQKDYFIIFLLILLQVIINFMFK
In words: co-IP; lysate of untransfected HuH7 cells (50 mM Tris-Cl, 150 mM NaCl, 0.5 mM MgCl2, 10% glycerol, 0.5% Triton X-100, pH 8.0); immunoprecipitated with anti-ORP8 or control IgG at 4°C, rProtein G agarose; Western blot with anti-Nup62. (In general: A western blot detects proteins with antibodies after separation by electrophoresis.)

Amino acid sequences for entries named in this document (tags omitted).
UniProt P37198: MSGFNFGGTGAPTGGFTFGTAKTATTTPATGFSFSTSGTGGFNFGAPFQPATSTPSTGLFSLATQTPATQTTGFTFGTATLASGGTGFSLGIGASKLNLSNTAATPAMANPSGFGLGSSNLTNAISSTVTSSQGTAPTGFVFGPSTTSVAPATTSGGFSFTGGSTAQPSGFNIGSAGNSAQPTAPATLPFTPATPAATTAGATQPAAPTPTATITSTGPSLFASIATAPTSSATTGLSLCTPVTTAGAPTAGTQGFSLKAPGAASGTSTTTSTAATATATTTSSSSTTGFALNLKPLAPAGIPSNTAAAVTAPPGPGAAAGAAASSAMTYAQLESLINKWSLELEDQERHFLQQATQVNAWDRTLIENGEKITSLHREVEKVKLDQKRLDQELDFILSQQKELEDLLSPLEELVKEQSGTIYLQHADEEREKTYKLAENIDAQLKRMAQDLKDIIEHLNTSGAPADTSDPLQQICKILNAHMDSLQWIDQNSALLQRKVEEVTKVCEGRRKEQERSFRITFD

These are yes or no findings as the source states them, for the method shown. Binding seen in cells or lysates may run through a third protein. Some entries that bind do so weakly or less than the wild type.

Regarding “Nup62 (endogenous, HuH7 cells) (from UniProt P37198 1-522)”, the binding result is recorded as “binds”.

Values taken from article PMC3115989.
